This is an account of results in patent EP2078752A2.

The chains behind the UniProt entries cited, without tags or fusion partners. Where a name states a change or a piece, a line headed by the entry shows the natural chain unless it says otherwise. Residues count along the entry.
UniProt P37173, residues 23-567: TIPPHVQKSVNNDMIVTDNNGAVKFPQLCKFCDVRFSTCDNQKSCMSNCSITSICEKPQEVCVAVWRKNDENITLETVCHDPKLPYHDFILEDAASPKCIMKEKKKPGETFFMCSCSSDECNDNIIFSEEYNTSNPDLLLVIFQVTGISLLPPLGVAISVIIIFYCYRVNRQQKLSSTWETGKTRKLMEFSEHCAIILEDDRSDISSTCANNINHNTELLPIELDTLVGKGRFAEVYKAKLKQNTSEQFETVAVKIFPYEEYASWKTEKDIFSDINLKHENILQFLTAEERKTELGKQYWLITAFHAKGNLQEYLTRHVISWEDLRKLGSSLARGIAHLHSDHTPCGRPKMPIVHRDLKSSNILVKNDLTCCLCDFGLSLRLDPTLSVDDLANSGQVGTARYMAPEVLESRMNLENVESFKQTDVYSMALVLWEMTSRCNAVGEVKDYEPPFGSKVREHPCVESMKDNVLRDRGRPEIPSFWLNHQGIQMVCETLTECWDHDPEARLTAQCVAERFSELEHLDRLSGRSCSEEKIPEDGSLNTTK
UniProt P36898: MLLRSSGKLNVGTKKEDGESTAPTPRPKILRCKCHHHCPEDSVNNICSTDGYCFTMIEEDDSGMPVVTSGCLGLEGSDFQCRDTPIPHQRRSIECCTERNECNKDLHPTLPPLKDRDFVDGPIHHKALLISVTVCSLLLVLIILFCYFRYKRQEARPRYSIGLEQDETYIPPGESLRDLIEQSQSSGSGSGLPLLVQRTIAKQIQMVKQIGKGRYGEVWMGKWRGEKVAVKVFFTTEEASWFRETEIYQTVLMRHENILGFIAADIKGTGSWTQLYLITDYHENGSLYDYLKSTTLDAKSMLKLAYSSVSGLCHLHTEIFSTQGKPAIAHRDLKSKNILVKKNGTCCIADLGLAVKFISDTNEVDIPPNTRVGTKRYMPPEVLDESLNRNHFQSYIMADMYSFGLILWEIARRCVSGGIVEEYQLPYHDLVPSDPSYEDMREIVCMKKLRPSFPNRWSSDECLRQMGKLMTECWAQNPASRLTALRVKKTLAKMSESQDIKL
UniProt P08476, residues 311-426: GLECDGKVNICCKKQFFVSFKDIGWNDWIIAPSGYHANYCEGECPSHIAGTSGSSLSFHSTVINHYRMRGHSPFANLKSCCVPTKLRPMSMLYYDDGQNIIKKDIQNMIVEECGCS

Experiment [1] has as its target human TGF-β type II receptor (TβR-II) (human) (UniProt P37173). Description: co-immunoprecipitation with DRL antiserum after 125I-TGF-β1 cross-linking, co-transfected COS-1 cells.
The target of experiment [2] is T1, endogenous ALK-4 (activin type I receptor) of PAE/Chim A porcine aortic endothelial cells (porcine) (UniProt D3K5N5).
T1 sequence: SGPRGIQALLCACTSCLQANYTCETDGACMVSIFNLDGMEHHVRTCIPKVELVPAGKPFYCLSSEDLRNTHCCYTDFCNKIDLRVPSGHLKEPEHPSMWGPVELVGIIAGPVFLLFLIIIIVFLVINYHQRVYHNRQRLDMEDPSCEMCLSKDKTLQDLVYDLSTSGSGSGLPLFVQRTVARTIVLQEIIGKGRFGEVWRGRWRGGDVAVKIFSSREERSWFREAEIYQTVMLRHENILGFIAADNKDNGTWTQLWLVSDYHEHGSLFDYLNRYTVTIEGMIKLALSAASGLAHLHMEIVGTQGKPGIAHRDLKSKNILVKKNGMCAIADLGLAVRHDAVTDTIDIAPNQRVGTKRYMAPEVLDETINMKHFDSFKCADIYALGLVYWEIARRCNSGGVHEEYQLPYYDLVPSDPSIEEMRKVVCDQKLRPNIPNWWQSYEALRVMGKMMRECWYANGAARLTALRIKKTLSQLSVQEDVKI
Kind of experiment: affinity cross-linking of 125I-activin A on PAE/Chim A cells then immunoprecipitation.

No constants are given. Whether binding was seen depends on the method and setting. For some assays here: In cells and extracts the contact can be indirect. Some entries that bind do so weakly or less than the wild type.

Regarding “mouse ALK-6 (clone ME-6) (from UniProt P36898 14-502) (receptor)”, the binding entry in experiment [1] is recorded as “binds”. Turning to “recombinant human activin A, iodinated (^125I-activin A) (from UniProt P08476 311-426) (ligand)”, the binding result in experiment [2] is listed as “binds”.
